Reference: patent publication US12109179B2, “Pharmaceutical compositions and combinations comprising inhibitors of the androgen receptor and uses thereof” (ESSA Pharma Inc., priority 2019, dated 2024)

Test system: VCaP cells
Assay: VCaP cell proliferation assay (BrdU incorporation)
Type: cell-based
Settings: Homo sapiens, read-out: IC50 for blocking proliferation of VCaP cells
Text: BrdU incorporation was used to assess cell proliferation.

IC50: 164 µM
SMILES: CNC(=O)c1ccc(N2C(=S)N(c3ccc(C#N)c(C(F)(F)F)c3)C(=O)C2(C)C)cc1F [Enzalutamide, enzalutamide]
